Measurements as given in paper PMC6123635, “Molecular basis for governing the morphology of type-I collagen fibrils by Osteomodulin” (Communications Biology, 2018).
Residue numbers refer to the chain shown, from its start. In names and notes the source's numbering stands. No constants are given. Whether binding was seen depends on the method and setting. Some results given as binding are weak or reduced against the parent protein; the word gives no strength. For part of these data: Where a sequence is shown, tags or fusion partners need not be part of it.

Amino acid sequences for entries named in this document (tags omitted). A change or cut given only in a name is not applied to a line headed by its entry. Residues count along the entry.
UniProt P07585, residues 31-359: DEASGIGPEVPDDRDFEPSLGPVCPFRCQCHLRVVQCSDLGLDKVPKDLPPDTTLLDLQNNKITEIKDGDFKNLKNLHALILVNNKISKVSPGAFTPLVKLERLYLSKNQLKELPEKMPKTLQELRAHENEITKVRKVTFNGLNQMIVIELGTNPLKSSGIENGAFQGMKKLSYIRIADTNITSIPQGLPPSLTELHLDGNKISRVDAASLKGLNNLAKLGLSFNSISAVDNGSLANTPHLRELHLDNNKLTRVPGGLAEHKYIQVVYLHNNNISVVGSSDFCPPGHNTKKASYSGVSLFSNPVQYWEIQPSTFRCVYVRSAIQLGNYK
UniProt P02452: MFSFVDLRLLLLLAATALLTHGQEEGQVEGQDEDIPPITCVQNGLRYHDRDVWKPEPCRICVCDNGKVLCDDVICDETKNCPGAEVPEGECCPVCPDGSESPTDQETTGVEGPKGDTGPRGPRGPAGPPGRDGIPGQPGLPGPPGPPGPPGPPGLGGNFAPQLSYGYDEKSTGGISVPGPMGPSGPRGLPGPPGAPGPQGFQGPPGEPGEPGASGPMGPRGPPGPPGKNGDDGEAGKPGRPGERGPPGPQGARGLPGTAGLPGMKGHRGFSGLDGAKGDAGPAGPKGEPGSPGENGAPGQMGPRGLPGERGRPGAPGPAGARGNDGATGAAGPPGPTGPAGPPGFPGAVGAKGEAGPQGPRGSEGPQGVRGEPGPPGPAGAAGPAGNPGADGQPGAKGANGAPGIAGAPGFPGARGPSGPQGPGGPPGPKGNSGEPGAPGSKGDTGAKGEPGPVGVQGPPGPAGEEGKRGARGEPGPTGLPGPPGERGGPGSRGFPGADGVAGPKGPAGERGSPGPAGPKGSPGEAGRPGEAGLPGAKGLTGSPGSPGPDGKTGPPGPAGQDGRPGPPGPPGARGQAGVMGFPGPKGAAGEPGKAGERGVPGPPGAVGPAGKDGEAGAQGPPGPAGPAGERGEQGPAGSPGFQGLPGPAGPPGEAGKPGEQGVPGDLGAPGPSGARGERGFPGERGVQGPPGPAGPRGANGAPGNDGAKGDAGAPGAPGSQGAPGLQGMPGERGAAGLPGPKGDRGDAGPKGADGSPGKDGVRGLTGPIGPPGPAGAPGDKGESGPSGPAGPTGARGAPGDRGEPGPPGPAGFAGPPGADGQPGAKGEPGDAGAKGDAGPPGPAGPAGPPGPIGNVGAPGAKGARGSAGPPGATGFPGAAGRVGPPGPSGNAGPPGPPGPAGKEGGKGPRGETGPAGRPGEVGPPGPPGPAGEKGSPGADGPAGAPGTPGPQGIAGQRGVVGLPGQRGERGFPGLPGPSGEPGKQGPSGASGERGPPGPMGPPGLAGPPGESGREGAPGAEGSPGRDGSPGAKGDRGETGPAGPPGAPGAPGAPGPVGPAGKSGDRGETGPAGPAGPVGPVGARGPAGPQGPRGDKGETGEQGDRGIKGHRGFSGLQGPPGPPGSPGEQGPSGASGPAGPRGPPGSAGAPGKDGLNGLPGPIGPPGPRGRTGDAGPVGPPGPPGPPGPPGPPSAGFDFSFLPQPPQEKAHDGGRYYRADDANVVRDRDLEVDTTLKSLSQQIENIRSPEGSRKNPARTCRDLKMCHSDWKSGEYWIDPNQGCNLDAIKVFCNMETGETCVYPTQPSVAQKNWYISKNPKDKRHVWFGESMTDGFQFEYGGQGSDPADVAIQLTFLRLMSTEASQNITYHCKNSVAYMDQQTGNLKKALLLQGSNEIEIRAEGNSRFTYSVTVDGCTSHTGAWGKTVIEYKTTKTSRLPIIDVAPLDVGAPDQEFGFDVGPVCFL

Experiments:
[1] = target: Decorin (DCN), human full-length, recombinant (human) (UniProt P07585); assay: SEC-MALS; room temperature, PBS pH 7.4, proteins at 25 µM loaded on Superdex 200; both purified
[2] = target: T1, Osteomodulin (OMD), human, recombinant with C-terminal FLAG-tag (human) (UniProt Q99983); assay: SPR; OMD immobilised at around 3000 RU; collagen (0.125-3.5 µM) injected; both purified
T1 sequence: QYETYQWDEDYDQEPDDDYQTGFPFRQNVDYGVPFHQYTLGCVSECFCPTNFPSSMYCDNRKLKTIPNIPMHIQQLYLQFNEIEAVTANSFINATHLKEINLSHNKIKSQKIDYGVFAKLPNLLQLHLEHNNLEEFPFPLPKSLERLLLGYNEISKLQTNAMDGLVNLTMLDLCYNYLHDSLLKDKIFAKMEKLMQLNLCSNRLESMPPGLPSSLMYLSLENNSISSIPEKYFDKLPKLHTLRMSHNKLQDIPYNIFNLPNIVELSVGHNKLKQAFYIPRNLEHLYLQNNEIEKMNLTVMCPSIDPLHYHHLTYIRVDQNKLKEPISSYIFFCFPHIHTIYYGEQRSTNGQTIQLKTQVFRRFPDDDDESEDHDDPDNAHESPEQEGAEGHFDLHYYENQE

[3] = target: T1, Osteomodulin (OMD), human, recombinant with C-terminal FLAG-tag (human); assay: crystal structure; OMD 9.9 mg/ml, 200 mM ammonium phosphate dibasic, 24% PEG 3350, 20 °C; contacts between chains in the crystal judged with the PISA server; both purified
[4] = target: T1, Osteomodulin (OMD), human, recombinant with C-terminal FLAG-tag (human); assay: SEC-MALS; room temperature, PBS pH 7.4, proteins at 25 µM loaded on Superdex 200; both purified
[5] = target: T2, Type-I collagen (VitroCol, human) (human, UniProt P02452 162-1218; P08123 80-1119); assay: immunoelectron microscopy; collagen incubated 0 min, 10 min or 12 h at 37 °C in PBS pH 7.4, adsorbed on Ni grid; OMD put on the grids 30 min at room temperature; detected with anti-OMD mouse antibody and 5-nm gold anti-mouse IgG; both purified
[6] = target: T2, Type-I collagen (VitroCol, human); assay: SPR; collagen immobilised on CM5 chip at around 8000 RU; OMD or muteins injected (0.125-2 µM), 30 µl/min; PBS pH 7.4, 0.005% Tween-20, 20 °C; KD by steady state analysis; binding response at 2 µM; both purified

Question: How did the binding [1] turn out when “Decorin (DCN), human full-length, recombinant (from UniProt P07585 31-359)” was run?
Answer: The binding was “binds”.

Question: “Type-I collagen (VitroCol, human) (from UniProt P02452 162-1218; P08123 80-1119) (complex)” was tested. Which binding [2] did it give?
Answer: The binding was “binds”.

B1: Osteomodulin (OMD), human, recombinant with C-terminal FLAG-tag (natural protein, UniProt Q99983 21-421, looked up)
chain: T1 sequence
notes: osteomodulin (OMD), human, without residues 1-20 (signal peptide), residues 21-421; Its own signal peptide was replaced by the sp1-2 signal peptide for secretion; Carbohydrate is modelled in the crystal structure; Monomer by SEC-MALS; also called full-length OMD; WT OMD; source: Sf9 cells, baculovirus, secreted; not shown: FLAG, C-terminal, kept
Question: What does the source list for B1?
Answer: binding [3]: no binding (tested: 9.9 mg/ml); binding [4]: no binding (tested: 25 µM); binding [5]: binds

B2: OMD E284R/E303R (double mutant in the construct of full-length OMD) (natural protein, human, UniProt Q99983 21-421, looked up)
chain: T1 sequence with E264R, E283R
Question: For B2, which binding [6] is on record?
Answer: Its binding is “no binding (tested: 2 µM)”.
